The source of these data is PubChem BioAssay AID2685 (National Center for Advancing Translational Sciences (NCATS), 2010).

The nature of this assay: qHTS Assay for Lipid Storage Modulators in Drosophila S3 Cells.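 On cell number change: cells counted by Cell Tracker Red CMTPX staining in the red channel.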 Particulars: BODIPY lipid droplet fluorescence, 18-24 h; for cell number change: measured here: cell count max response, cells fed with added oleic acid. In outline: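 Laser-scanning cytometry quantifies lipid droplet accumulation (500–530 nm total intensity; droplet/cell object ratio) in oleic acid-fed (400 uM added) Drosophila S3 cells treated with a concentration series. 20 uM Triacsin C defined 100% inhibition.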

Setting [1] is: measured here: cell number channel AC50, cells fed with added oleic acid.
The mark [2] stands for this setting: measured here: lipid fluorescence (Fed channel) AC50, cells fed with added oleic acid.

The list shows a part of the results. Shown are side measurements of this screen, not its main read-out; they come without a call. The list favours compounds with an active or inconclusive main result. The note in brackets gives the kind of curve behind each potency; many fits are weak.

For the compound `COc1ccc(CCNC(=O)Cc2ccc3c(c2)OCO3)cc1OC`, the cell number change was found to be 33.5%. Besides, under setting [1], the AC50 is 32.6 µM [rising, single point].

Take `O=C1c2ccccc2C(=O)N1c1ccc(Cl)cn1`: the cell number change is -55.7%. In addition, under setting [1], the AC50 was 3.26 µM [falling, full curve]. In addition, under setting [2], the AC50 is 10.3 µM [falling, partial curve].

On to `CCOc1ccc(N2CC(C(=O)Nc3cccc(C)c3C)CC2=O)cc1` (stereo not given), for which the AC50 was 0.259 µM [rising, partial curve, poor fit] under setting [1] and 1.84 µM [rising, single point] under setting [2].

Regarding `COc1ccc(C(=O)COC(=O)CN2C(=O)NC3(CC(C)CC(C)(C)C3)C2=O)c(OC)c1` (stereo not given), the cell number change is -36.4%. For the same compound, the AC50 under setting [1] is 0.326 µM [falling, full curve, poor fit]. In addition, the AC50 under setting [2] is 0.206 µM [falling, full curve].

In the case of `CCOC(=O)c1ccc2c(c1)nc(COc1ccc3ccccc3c1)n2CC`, the AC50 was 0.58 µM [rising, single point] under setting [1] and 1.64 µM [rising, partial curve] under setting [2].

Consider `COc1ccc(CNc2ccc(C)c(C)c2)cc1`, for which the cell number change was -18.9%. In addition, the AC50 under setting [2] is 32.6 µM [falling, single point].

Turning to `C=CCn1c(-c2cc(Cl)ccc2OC)n[nH]c1=S`, the cell number change turned out to be 58.8%. Also, under setting [1], the AC50 is 9.2 µM [rising, partial curve]. Also, the AC50 under setting [2] is 1.46 µM [rising, partial curve].

As to `O=C(NN1CCN(Cc2ccccc2Cl)CC1)c1ccc(Cl)cc1`, the cell number change was 23.4%. The AC50 under setting [2] is 3.66 µM [rising, single point].

For `Cc1ccccc1C(=O)N1CCC(C(=O)Nc2ccccc2Cl)CC1`, the cell number change worked out at 12%.

With `COc1ccc(CN2CCC(Cc3ccccc3)CC2)c(C)c1C`, the cell number change is 16.8%.

With `CSc1cccc(NC(=S)N(CCN(C)C)C(C)c2ccccn2)c1` (stereo not given), the cell number change worked out at 54.9%. For the same compound, the AC50 under setting [1] is 23.1 µM [rising, single point]. Also, the half-maximal activity concentration (AC50) under setting [2] is 18.4 µM [rising, single point].

As for `O=C(Cn1cnc(Cl)c1Cl)c1ccc(F)cc1`, the cell number change was -70.6%. For the same compound, the AC50 under setting [1] is 29.1 µM [falling, single point]. For the same compound, under setting [2], the AC50 is 29.1 µM [falling, single point].

Consider `CCOc1ccc(CN2CCCN(C)CC2)cc1`, for which the cell number change is -17.7%. For the same compound, the AC50 under setting [1] was 0.291 µM [falling, full curve, poor fit]. Moreover, under setting [2], the half-maximal activity concentration (AC50) is 3.66 µM [falling, single point].

Take `CCCNc1c(NS(=O)(=O)c2ccc(C(C)(C)C)cc2)c(=O)oc2ccccc12`: the cell number change was 22.1%. Besides, the concentration at half-maximal activity (AC50) under setting [2] was 0.0517 µM [rising, full curve].

Consider `Cc1ccc(S(=O)(=O)NC(=O)c2ccc(Br)o2)c(C)c1`, for which the cell number change is 21.9%. Moreover, the half-maximal activity concentration (AC50) under setting [2] is 14.6 µM [rising, single point].

Consider `COc1cc(NC(=O)c2ccco2)c(OC)cc1NC(=O)Nc1cccc(Cl)c1`, for which the cell number change was -1.53%. In addition, the AC50 under setting [2] is 3.66 µM [falling, full curve, poor fit].

With `CCOC(=O)c1[nH]c(C)c(C(=O)N2CCN(c3ccccc3)CC2)c1C`, the cell number change is -14.1%. Besides, the concentration at half-maximal activity (AC50) under setting [2] was 20.6 µM [rising, single point].

As for `Cc1cccc(Oc2cc([N+](=O)[O-])cc3c2C(=O)Nc2ccccc2O3)c1`, the cell number change amounted to 30.4%. The AC50 under setting [1] was 6.51 µM [rising, partial curve]. Also, the AC50 under setting [2] was 4.61 µM [rising, partial curve].

For `CCCCN(CC)C(=O)Cc1cn(C)c2ccccc12`, the cell number change worked out at 4.37%. Moreover, under setting [2], the half-maximal activity concentration (AC50) is 29.1 µM [rising, single point].

For `Cc1cc(Br)ccc1NC(=O)CN1CCN(c2ccccn2)CC1`, the cell number change was -14.6%. Further, the AC50 under setting [1] was 0.164 µM [falling, full curve, poor fit].

Regarding `C/[N+]([O-])=C/c1c(OCc2ccccc2)ccc2ccccc12`, the cell number change was 22.7%. Further, the AC50 under setting [2] is 1.03 µM [rising, full curve, poor fit].

Turning to `O=C(Nc1ccccc1F)C1CCN(S(=O)(=O)c2cccc3nonc23)CC1`, the cell number change was -55.9%. Also, the concentration at half-maximal activity (AC50) under setting [1] is 29.1 µM [falling, single point].

Consider `CC(C)C[C@H](NC(=O)N1CCn2c1nc1ccccc12)C(=O)NC1CC1`, for which the cell number change was -15.7%. Also, under setting [2], the AC50 is 29.1 µM [falling, single point].

For `CCCCOC(=O)c1ccc(NC(=O)CSc2nncn2C)cc1`, the cell number change was -15.3%.

Turning to `CC(C)(C)c1nc(SCC(=O)Nc2ccc(N3CCOCC3)cc2)c2ccccc2n1`, the cell number change is -63.6%. The half-maximal activity concentration (AC50) under setting [1] was 2.59 µM [falling, partial curve, poor fit]. The concentration at half-maximal activity (AC50) under setting [2] was 29.1 µM [falling, single point].

For `COC(=O)c1cc(=O)c2c([N+](=O)[O-])ccc(OC)c2o1`, the cell number change was found to be 12.9%. For the same compound, under setting [2], the AC50 is 1.84 µM [rising, partial curve, poor fit].

For the compound `CCOc1ccc(NC(=O)c2cccnc2Cl)c([N+](=O)[O-])c1`, the AC50 under setting [2] was 29.1 µM [rising, single point].

As for `NC(=O)N1OCC2COc3ccc4ccccc4c3C21` (stereo not given), the cell number change was 3.93%. For the same compound, the AC50 under setting [2] was 6.51 µM [falling, single point].

Regarding `CC(C)(C)C(=O)CSc1nc2ccccc2o1`, the cell number change was 5.42%.

Turning to `Cc1ccc(CNC(=O)c2ccc(OCC3CCCO3)cc2)cc1` (stereo not given), under setting [1], the concentration at half-maximal activity (AC50) was 2.91 µM [rising, single point].

Take `O=C(CCCNC(=O)c1ccc(Cl)cc1)Nc1ncccc1O`: the cell number change was -7.8%. The AC50 under setting [2] was 16.4 µM [rising, single point].

For `Cc1ccc(C(=O)COC(=O)CCC(=O)Nc2ccccc2Cl)cc1[N+](=O)[O-]`, the cell number change was -3.36%. Besides, the half-maximal activity concentration (AC50) under setting [1] is 0.517 µM [falling, partial curve, poor fit]. For the same compound, under setting [2], the half-maximal activity concentration (AC50) was 0.651 µM [falling, partial curve].

`NC1=NC(c2ccc(Br)cc2)n2c(nc3ccccc32)N1` (stereo not given): the AC50 under setting [1] is 0.13 µM [falling, full curve, poor fit].

With `COCCn1c(Cc2cccn2C)nnc1SCC(=O)Nc1nccs1`, the cell number change is -13%. Also, the AC50 under setting [2] is 6.51 µM [rising, single point].

For the compound `C=CCOC(=O)Nc1c(C(=O)OC)[nH]c2ccc(Cl)cc12`, the cell number change came out at 8.62%. Further, the AC50 under setting [1] was 0.259 µM [rising, full curve, poor fit].

For `Cc1[nH]c(=O)[nH]c(=O)c1CSc1nnc(CCCCCNC(=O)OC(C)(C)C)o1`, the cell number change was 5.37%. For the same compound, the concentration at half-maximal activity (AC50) under setting [2] was 7.31 µM [falling, partial curve].

In the case of `Cc1ccc2occ(/C=N/NC(=O)c3ccc(O)cc3)c(=O)c2c1`, the AC50 under setting [2] is 29.1 µM [falling, single point].
